Paper PMC10954487
No constants are given. Whether binding was seen depends on the method and setting. In cells and extracts the contact can be indirect. Some binding calls cover weakened binding; strength is not graded here.

Protein sequences, listed by entry. Tags and fused reporters are not part of them.
UniProt O00571: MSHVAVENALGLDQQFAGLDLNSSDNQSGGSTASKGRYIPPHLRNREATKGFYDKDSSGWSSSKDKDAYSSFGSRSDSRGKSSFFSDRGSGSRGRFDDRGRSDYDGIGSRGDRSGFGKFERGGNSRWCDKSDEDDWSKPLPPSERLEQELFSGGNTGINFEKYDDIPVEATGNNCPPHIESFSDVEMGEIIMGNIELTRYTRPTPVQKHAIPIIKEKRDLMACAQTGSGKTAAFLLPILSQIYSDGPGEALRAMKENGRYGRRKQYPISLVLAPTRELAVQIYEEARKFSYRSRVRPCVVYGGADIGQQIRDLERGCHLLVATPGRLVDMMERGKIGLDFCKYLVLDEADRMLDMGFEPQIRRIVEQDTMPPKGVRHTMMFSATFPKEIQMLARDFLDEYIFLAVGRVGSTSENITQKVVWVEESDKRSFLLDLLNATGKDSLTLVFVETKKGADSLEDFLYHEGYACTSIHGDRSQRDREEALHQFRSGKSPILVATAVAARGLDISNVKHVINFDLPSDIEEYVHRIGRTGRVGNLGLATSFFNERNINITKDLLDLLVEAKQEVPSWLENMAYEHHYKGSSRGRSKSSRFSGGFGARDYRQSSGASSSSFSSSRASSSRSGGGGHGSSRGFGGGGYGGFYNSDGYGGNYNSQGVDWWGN

Target: HA-hnRNPK (hemagglutinin (HA3)-tagged heterogeneous nuclear ribonucleoprotein K, wild type) (UniProt P61978)
Assay: co-IP; […] (NaCl 100 mM, EDTA 2 mM, Tris-HCl 50 mM pH 7.5, Triton X-100 1%); […]

Substance	binding
DDX3 (from UniProt O00571 1-662)	binds
Human antigen R (HuR) (from UniProt Q15717 1-326)	binds
